# The other results are listed elsewhere or left out. Further columns of the screen follow, without active or inactive calls. Most of these compounds were active or inconclusive in the main read-out, so they are no random draw. The note in brackets gives the kind of curve behind each potency; many fits are weak.
# Test: qHTS Assay for Modulators of Lamin A Splicing
# Settings: HeLa LMNA splicing GFP/RFP minigene ratio, 48 h
# Method in brief: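 Read-out is the ratio of GFP to DsRed2 object intensity, acquired by 488 nm laser-scanning cytometry on HeLa lamin A-EGFP minigene reporter cells. Compound incubation 48 hrs at 37 °C in Opti-MEM with 2% FBS; DMSO 0.5% final.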
# [1] = measured here: RFP viability control channel
# [2] = measured here: GFP splicing reporter channel
SMILES,AC50 [1],AC50 [2]
CCOC(=O)c1c(S(=O)(=O)N2CCCC(C(=O)NCc3ccccc3OC)C2)c(C)n(C)c1C (stereo not drawn),"10 µM [falling, partial curve, poor fit]",
N#Cc1c(NC(=O)C2CCCO2)sc2c1CCCCCC2 (stereo not drawn),"3.98 µM [rising, partial curve, poor fit]",
COc1cc(/C=C2/SC(=S)N(CC(=O)NC(C)(C)C)C2=O)cc(OC)c1OC,"35.5 µM [rising, single point]","35.5 µM [rising, single point]"
O=c1c(CCc2ccccc2)nc2cncnc2n1Cc1ccc(F)cc1,,"20 µM [falling, single point]"
N#Cc1ccc(C(=O)Nc2cc(S(=O)(=O)Nc3ccc(Cl)cc3)ccc2N2CCCCC2)cc1,"2.24 µM [rising, full curve, poor fit]",
COc1cc(/C=c2\s/c(=C\C(=O)C(C)(C)C)[nH]c2=O)cc(OC)c1OC,"4.47 µM [rising, full curve, poor fit]",
c1ccc2[nH]c(CSc3nc4ccccc4o3)nc2c1,"31.6 µM [rising, single point]",
O=C(c1ccc(Cl)c(S(=O)(=O)N2CCCCCC2)c1)N1CCN(c2ccccn2)CC1,"15.8 µM [rising, single point]","20 µM [rising, single point]"
CC1(C)Cc2nc3oc4c(N(CCO)Cc5ccccc5)ncnc4c3cc2CO1,"20 µM [rising, single point]",
Cc1ccc(/C=N/NC(=O)CSCc2ccc(Cl)cc2)cc1,"31.6 µM [rising, single point]",
Cc1cc2ncn(C(=O)c3c(-c4c(Cl)cccc4Cl)noc3C)c2cc1C,"14.1 µM [rising, single point]","22.4 µM [rising, single point]"
O=C(c1ccc(S(=O)(=O)c2ccccc2Cl)c([N+](=O)[O-])c1)N1CCN(Cc2ccccc2)CC1,"35.5 µM [falling, single point]","35.5 µM [falling, single point]"
CC(C)CCNC(=O)C1CCC(Cn2c(=O)c3sccc3n(CC(=O)NC(C)C)c2=O)CC1 (stereo not drawn),"0.631 µM [falling, full curve]",
NC(=O)c1ccccc1N=Cc1ccc2ccccc2c1,"15.8 µM [rising, single point]",
Cc1ccc(CN2CCN(/N=C/c3cc(Br)ccc3O)CC2)cc1,,"35.5 µM [falling, single point]"
COc1cccc(NC(=O)CN(Cc2ccccc2)S(C)(=O)=O)c1,"25.1 µM [rising, single point]","20 µM [rising, partial curve, poor fit]"
Cc1nnc(N/N=C/c2c(O)n(-c3cccc(C(F)(F)F)c3)c(=O)c3ccccc23)[nH]c1=O,"35.5 µM [falling, single point]",
CC(C)N1CCc2c(sc(NC(=O)c3cc(-c4cccs4)nc4ccccc34)c2C(N)=O)C1,,"0.355 µM [falling, partial curve, poor fit]"
CCOC(=O)CSC1=C(C#N)C(c2ccccc2OC)CC(=O)N1 (stereo not drawn),"11.2 µM [rising, partial curve]",
COC(=O)c1cccnc1-n1c(=O)c2cccnc2n(Cc2ccc([N+](=O)[O-])cc2)c1=O,"0.0224 µM [falling, full curve, poor fit]",
CC(CC(=O)Nc1ccc(Br)cc1F)S(=O)(=O)c1ccc2c(c1)NC(=O)CO2 (stereo not drawn),,"0.0355 µM [falling, full curve, poor fit]"
CCCC(C)C(=O)NCc1ccncc1 (stereo not drawn),"35.5 µM [falling, single point]","35.5 µM [falling, single point]"
COc1ccccc1-c1cncnc1Nc1ccccc1,"3.98 µM [falling, full curve, poor fit]","15.8 µM [falling, partial curve]"
CCCCOc1ccc(CNC(=O)CCCN2C(=O)CSc3c2c(C)nn3-c2ccccc2)cc1,,"0.02 µM [falling, full curve, poor fit]"
CCOC(=O)c1ccccc1NC(=O)c1sc2nc3n(c(=O)c2c1C)CCCC3,,"0.891 µM [rising, full curve, poor fit]"
CCc1ccc(CNC(=O)CN2C(=O)c3cccnc3Oc3ccc(C)cc32)cc1,,"22.4 µM [falling, partial curve, poor fit]"
O=C(NNC1OC(CO)C(O)C(O)C1O)c1cccc(Br)c1 (stereo not drawn),"10 µM [falling, partial curve, poor fit]",

# 14 consecutive entries from above, for reference:
SMILES,AC50 [1],AC50 [2]
CC(C)CCNC(=O)C1CCC(Cn2c(=O)c3sccc3n(CC(=O)NC(C)C)c2=O)CC1 (stereo not drawn),"0.631 µM [falling, full curve]",
NC(=O)c1ccccc1N=Cc1ccc2ccccc2c1,"15.8 µM [rising, single point]",
Cc1ccc(CN2CCN(/N=C/c3cc(Br)ccc3O)CC2)cc1,,"35.5 µM [falling, single point]"
COc1cccc(NC(=O)CN(Cc2ccccc2)S(C)(=O)=O)c1,"25.1 µM [rising, single point]","20 µM [rising, partial curve, poor fit]"
Cc1nnc(N/N=C/c2c(O)n(-c3cccc(C(F)(F)F)c3)c(=O)c3ccccc23)[nH]c1=O,"35.5 µM [falling, single point]",
CC(C)N1CCc2c(sc(NC(=O)c3cc(-c4cccs4)nc4ccccc34)c2C(N)=O)C1,,"0.355 µM [falling, partial curve, poor fit]"
CCOC(=O)CSC1=C(C#N)C(c2ccccc2OC)CC(=O)N1 (stereo not drawn),"11.2 µM [rising, partial curve]",
COC(=O)c1cccnc1-n1c(=O)c2cccnc2n(Cc2ccc([N+](=O)[O-])cc2)c1=O,"0.0224 µM [falling, full curve, poor fit]",
CC(CC(=O)Nc1ccc(Br)cc1F)S(=O)(=O)c1ccc2c(c1)NC(=O)CO2 (stereo not drawn),,"0.0355 µM [falling, full curve, poor fit]"
CCCC(C)C(=O)NCc1ccncc1 (stereo not drawn),"35.5 µM [falling, single point]","35.5 µM [falling, single point]"
COc1ccccc1-c1cncnc1Nc1ccccc1,"3.98 µM [falling, full curve, poor fit]","15.8 µM [falling, partial curve]"
CCCCOc1ccc(CNC(=O)CCCN2C(=O)CSc3c2c(C)nn3-c2ccccc2)cc1,,"0.02 µM [falling, full curve, poor fit]"
CCOC(=O)c1ccccc1NC(=O)c1sc2nc3n(c(=O)c2c1C)CCCC3,,"0.891 µM [rising, full curve, poor fit]"
CCc1ccc(CNC(=O)CN2C(=O)c3cccnc3Oc3ccc(C)cc32)cc1,,"22.4 µM [falling, partial curve, poor fit]"

# Following part:

SMILES,AC50 [1],AC50 [2]
COc1ccc2[nH]cc(CCNc3ccnc(-c4ccccc4Cl)n3)c2c1,"35.5 µM [falling, single point]","12.6 µM [falling, partial curve, poor fit]"
O=C(Oc1c(CN2CCOCC2)cc(Cl)c2cccnc12)c1ccccc1F,"2.82 µM [falling, full curve]",
Nc1ncnc2c1ncn2[C@@H]1O[C@H](COP(=O)(O)OP(=O)(O)OP(=O)(O)OP(=O)(O)OC[C@@H]2O[C@H](n3cnc4c(N)ncnc43)[C@@H](O)[C@@H]2O)[C@H](O)[C@H]1O,"0.00562 µM [falling, full curve, poor fit]","0.00562 µM [falling, full curve, poor fit]"
Cc1cc(C)c2sc(NNC(=O)c3ccc(S(=O)(=O)N4CCc5ccccc5C4)cc3)nc2c1,"12.6 µM [rising, single point]","3.98 µM [rising, single point]"
C(=C\c1nc(N2CCCCCC2)c2ccccc2n1)/c1ccccc1,"31.6 µM [rising, single point]",
O=C(CC(=O)Nc1cccc(Cl)c1)N/N=C\c1ccccc1,"20 µM [rising, single point]",
Cc1ccc(S(=O)(=O)Nc2ccc(N=Nc3ccc(O)cc3)cc2)cc1,"11.2 µM [rising, single point]",
O=C(Nc1cccc(S(=O)(=O)N2CCCCC2)c1)Nc1ccc(Cl)cc1Cl,"15.8 µM [rising, single point]",
COC(=O)c1ccc(OCC(O)CN2C(=O)c3ccccc3S2(=O)=O)cc1 (stereo not drawn),"1.12 µM [falling, full curve, poor fit]","0.708 µM [falling, full curve, poor fit]"
Cc1ccc(N(C(=O)c2snc(C(N)=O)c2N)C(C(=O)NCCC(C)C)c2ccco2)cc1 (stereo not drawn),,"7.08 µM [falling, full curve, poor fit]"
O=C(NCc1cccnc1)C1CCN(S(=O)(=O)N2CCOCC2)CC1,"6.31 µM [falling, single point]",
CCOC(=O)Cc1ccc(NS(=O)(=O)c2ccc(SC)cc2)cc1,"28.2 µM [rising, single point]",
Cc1ccc(NC(=S)NC(NC(=O)Cc2cccc3ccccc23)C(Cl)(Cl)Cl)cc1 (stereo not drawn),"14.1 µM [falling, partial curve]","35.5 µM [falling, single point]"
CCn1c(-c2nn(C)cc2Cl)n[nH]c1=S,"1.78 µM [falling, full curve]",
C1CCN2C[C@@H]3C[C@@H](CN4CCCC[C@H]34)[C@H]2C1,"0.316 µM [falling, single point]","5.62 µM [falling, partial curve]"
CC(c1cccs1)N(Cc1ccco1)C(=O)Nc1ccc(Cl)c(Cl)c1 (stereo not drawn),"31.6 µM [rising, single point]","35.5 µM [rising, single point]"
Cc1onc(-c2c(Cl)cccc2Cl)c1C(=O)c1c[nH]c(C(=O)NCC2CCCO2)c1 (stereo not drawn),"35.5 µM [falling, single point]","35.5 µM [falling, single point]"
CCCOC(=O)c1ccc(Cl)c(NC(=O)c2cccnc2)c1,"2 µM [falling, full curve, poor fit]","1.12 µM [falling, full curve, poor fit]"
Cc1ccc(C)c(S(=O)(=O)NCc2ccc(C(=O)N3CCC(Cc4ccccc4)CC3)cc2)c1,"10 µM [falling, partial curve]","11.2 µM [falling, single point]"
O=C(NCCCN1CCN(c2ccc(F)cc2)CC1)Nc1ccc([N+](=O)[O-])cc1,"0.398 µM [falling, full curve, poor fit]","0.316 µM [falling, full curve]"
COC(=O)c1c(NS(=O)(=O)c2ccc(C)cc2)sc2c1CCC(C)C2 (stereo not drawn),"35.5 µM [rising, single point]",
Cc1cc(OCC(=O)NC2CCN(C)CC2)ccc1[N+](=O)[O-],"4.47 µM [falling, partial curve]",
CC1=C(c2ccc(C)cc2)S(=O)(=O)N(Cc2ccc(C(=O)Nc3ccc(F)cc3C)cc2)C1=O,"1.41 µM [rising, full curve, poor fit]",
Cc1ccc(C)c(NC(=O)c2cnn3ccccc23)c1,"12.6 µM [rising, partial curve]",
O=C(c1ccc2c(Cl)c3c(nc2c1)CCCC3)N1CCN(c2ccc(F)cc2)CC1,"22.4 µM [rising, partial curve]","12.6 µM [rising, single point]"
Cn1c(=O)n(C/C=C/c2ccccc2)c(=O)c2c1nc1n2CCCN1c1ccc(F)cc1,"15.8 µM [rising, partial curve]","22.4 µM [rising, single point]"
